Consider 65 compounds from PubChem BioAssay AID493014 (National Center for Advancing Translational Sciences (NCATS), 2011).

The nature of this experiment: qHTS Assay to Find Inhibitors of Chronic Active B-Cell Receptor Signaling. The following applies: ABC-DLBCL IkBa-CBG/CBR reporter, luminescence ratio (green luciferase fused to IkBa over red control in TMD8 lymphoma cells), 4 h. Summed up:
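Cell line TMD8 (human ABC DLBCL), stably expressing tet-inducible CBG68-IkBa fusion and CBR; IMDM/0.5% FBS; cpd up to 46 uM; dox induction, 4 h, 37C/5% CO2; dual luminescence; green/red ratio; MG132 control.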
On the technique in general: qHTS replaces the single test concentration by a dilution series.

[1] abbreviates: measured here: CBR red luminescence, cell number.
Where [2] appears, read: measured here: IkBa-CBG green luminescence.

The list shows a part of the results. The main result of the screen is listed elsewhere. These columns were measured beside it and carry no call. Compounds called inactive in the main read-out are mostly missing here. Words in brackets tell the shape of the fitted curve; partial curves, single points and poor fits give uncertain potencies.

In general, AC50 refers to the concentration at which the activity in the assay is half-maximal.

For `C=CCn1c(SCCCC)nc(O)cc1=O`, under setting [1], the AC50 is 6.51 µM [rising, single point].

`CSCCC(NC(=O)c1ccco1)C(=O)Nc1ccc(C)cn1` (stereo not given): under setting [1], the AC50 was 1.3 µM [rising, full curve, poor fit]. Still for that read-out and setting: for `COc1ccc(-c2nc3scc(CCNS(=O)(=O)c4ccc(Oc5ccccc5)cc4)n3n2)cc1` the value was 17.8 µM [rising, single point]; for `COc1ccc(Cc2noc(CN(C)CCc3ccccc3)n2)cc1OC`, 25.1 µM [falling, single point]; for `CCC(=O)N1c2ccc(S(=O)(=O)CCC(=O)NCc3cccs3)cc2CC1C` (stereo not given), 23.1 µM [rising, single point]. For the compound `CCOc1ccc(C(=O)Cc2cc3cccc(OC)c3oc2=O)cc1`, the AC50 under setting [1] was 5.01 µM [falling, full curve, poor fit]. Same read-out and setting: next, `COc1ccc(C2=CC(=O)C=CC2=O)cc1`: 17.8 µM [falling, single point]; `COc1ccc(-n2cc(CNC3CCC(O)CC3)c(-c3cccc(F)c3)n2)cc1` (stereo not given): 10 µM [falling, partial curve]; `Cc1cc(C(=O)NCc2ccco2)cs1`: 10.3 µM [rising, partial curve, poor fit]. Regarding `O=C(CN1CCCCC1)Nc1cc(Cl)ccc1Oc1ccccc1`, the half-maximal activity concentration (AC50) under setting [1] was 12.6 µM [rising, partial curve, poor fit].

For the compound `CC1(C)Cc2ccccc2-c2nnc(-c3ccco3)n21`, the AC50 under setting [1] was 16.4 µM [falling, single point].

On to `Cc1cc2cc(CNC(=O)c3ccco3)ccc2n1C`, for which, under setting [1], the AC50 was 2.51 µM [rising, partial curve].

In the case of `Cc1ccc(-n2[nH]c(C)c(C=Nc3ccc(S(=O)(=O)Nc4nc(C)cc(C)n4)cc3)c2=O)c(C)c1`, the half-maximal activity concentration (AC50) under setting [1] was 29.1 µM [rising, single point]. Consider `CC1CCN(c2ccc(-c3ccc(NC(=O)C(F)(F)F)cc3)nn2)CC1`, for which, under setting [1], the AC50 was 3.16 µM [falling, full curve, poor fit].

As to `Cc1cccc(C)c1NC(=O)c1ccc([N+](=O)[O-])s1`, the concentration at half-maximal activity (AC50) under setting [1] is 18.4 µM [falling, partial curve, poor fit]. Same read-out and setting: for `Cc1nc(-c2ccc(C(=O)N3CCCC3)cc2)cs1` the value was 35.5 µM [falling, single point]. `O=C(/C=C/c1ccco1)Nc1nc(-c2ccccn2)cs1`: the AC50 under setting [1] was 12.6 µM [falling, single point] and the AC50 under setting [2] was 11.2 µM [rising, partial curve, poor fit]. With `Cc1nnc(C)n1/N=C/c1cccn1C`, the AC50 under setting [1] was 0.82 µM [rising, full curve, poor fit]. Consider `NC(=O)c1ccsc1NC(=O)CCc1ccccc1`, for which the AC50 under setting [1] was 7.94 µM [falling, partial curve]. On the same count and under the same terms, next, `COc1ccc(/C=C2\SC(=O)N(CCC(=O)N3CCCCC3CCO)C2=O)cc1` (stereo not given): 5.01 µM [falling, partial curve]; `c1ccc(-n2nnc3c(N4CCOCC4)ncnc32)cc1`: 20 µM [falling, single point]; `CSc1nc(Nc2ccc(Cl)cc2)c(C#N)c(=O)[nH]1`: 35.5 µM [rising, partial curve, poor fit]. `O=C(Nc1ccc2c(c1)OCCO2)c1ccc(Br)s1`: the AC50 under setting [1] is 11.6 µM [falling, partial curve, poor fit]. As to `COc1ncccc1-c1nnn(-c2ccc(C)cc2)n1`, the AC50 under setting [1] is 35.5 µM [falling, single point]. On to `Cc1ccc(Cl)cc1N1CCN(C(=O)c2ccc(CS(=O)c3ccccc3)o2)CC1` (stereo not given), for which, under setting [1], the AC50 is 35.5 µM [falling, single point]. With `COc1ccc(C(=O)Nc2ccc(CN3CCOCC3)cc2)cc1`, under setting [1], the AC50 was 6.51 µM [rising, single point]. Still for that read-out and setting: for `CCOC(=O)C1CCN(c2ccccc2CN2CCN(c3ccccc3OCC)CC2)CC1` the value was 12.6 µM [rising, single point]; for `Cc1ccccc1Cn1nnc(-c2ccc(C(=O)O)cc2)n1`, 28.2 µM [falling, single point]. On the same count and under the same terms, for `COc1ccc(CNC(=O)C(c2ccco2)N(C(=O)c2ccccn2)c2ccccc2)cc1` (stereo not given) the value was 8.91 µM [falling, partial curve, poor fit]; for `CC(C)C(NC(=O)c1ccc(C(C)(C)C)cc1)C(=O)NC1=NCCS1` (stereo not given), 29.1 µM [falling, single point]; for `COc1cc(COc2ccc(-c3nnco3)cc2)ccc1OC(F)F`, 5.62 µM [rising, partial curve].

Turning to `Oc1c(Cl)cc(CN2CCCCC2)c2cccnc12`, the AC50 was 7.08 µM [rising, full curve, poor fit] under setting [1] and 15.8 µM [falling, single point] under setting [2]. Turning to `COc1cccc(/C=N/NC(=O)c2cnccn2)c1`, under setting [1], the AC50 was 16.4 µM [falling, partial curve, poor fit]. Consider `CCOc1ccc(N(C)S(=O)(=O)c2ccc(C)c(C(=O)N3CCN(Cc4ccc5c(c4)OCO5)CC3)c2)cc1`, for which the AC50 under setting [1] is 29.1 µM [falling, single point]. On the same count and under the same terms, next, `CCN(CC)CCCn1c(=S)[nH]c2cc(OC)c(OC)cc2c1=O`: 29.1 µM [falling, single point]; `CN1C(=O)c2oc3ccccc3c(=O)c2C1c1ccccn1` (stereo not given): 25.9 µM [falling, single point]; `S=c1[nH]nc(-c2ccc(Br)o2)n1Cc1ccccc1`: 29.1 µM [rising, single point]. Still for that read-out and setting: for `Cc1ccccc1Nc1nc(N)nc(COC(=O)c2c(C)noc2C)n1` the value was 25.9 µM [rising, single point]. As to `CCCCN(CC)CCCNC(=O)c1cc2c(=O)n(CC)c3ccccc3c2s1`, under setting [1], the half-maximal activity concentration (AC50) is 1.41 µM [falling, single point]. Same read-out and setting: for `CC1CN(c2ncnc3c2oc2ccccc23)CC(C)O1` (stereo not given) the value was 6.31 µM [rising, full curve, poor fit]; for `CCOC(=O)C(=CNc1ccc(Oc2cccnc2)nc1)C(=O)OCC`, 0.562 µM [falling, partial curve, poor fit]. Take `O=C(CSc1nnc(-c2cccs2)o1)N1CCOCC1`: under setting [1], the AC50 is 6.51 µM [rising, single point]. In the case of `OCC1(Cc2ccccc2)CCCN(Cc2ccc3c(c2)OCCO3)C1` (stereo not given), the half-maximal activity concentration (AC50) under setting [1] was 14.1 µM [falling, partial curve, poor fit]. For the compound `O=C(CSc1nnc2ccccn12)Nc1ccccc1C(=O)O`, the AC50 under setting [1] was 10 µM [falling, partial curve, poor fit]. Consider `O=C(/C=C/c1ccccc1Cl)NNC(=O)c1ccncc1`, for which, under setting [1], the AC50 is 20.6 µM [falling, single point]. Same read-out and setting: for `CCSC1=N/C(=C\c2cccc(F)c2)C(=O)S1` the value was 25.9 µM [rising, single point]. Turning to `Fc1ccc(C2c3[nH]c4ccccc4c3CCN2Cc2ccoc2)cc1` (stereo not given), the AC50 under setting [1] was 35.5 µM [falling, single point] and the AC50 under setting [2] was 20 µM [rising, partial curve, poor fit]. Consider `Cc1cccc(CN2CCN(CC(C)C)C(CCO)C2)n1` (stereo not given), for which the AC50 under setting [1] is 12.6 µM [rising, single point]. Still for that read-out and setting: next, `CC(c1ccccc1)N1C(=O)c2ccc(C(=O)NCc3ccco3)cc2C1=O` (stereo not given): 4.61 µM [rising, full curve]; `Cc1ccnc(NC(=O)c2ccc3c(c2)OCO3)c1`: 12.6 µM [falling, partial curve, poor fit]; `CS(=O)(=O)Nc1cccc(-c2cnc3ccccc3n2)c1`: 3.16 µM [rising, single point]. Take `CCCCN1C(=O)C(O)(CC(=O)c2ccco2)c2cc(Br)ccc21` (stereo not given): the AC50 under setting [2] is 25.9 µM [falling, single point].

As for `COc1ccc(OC)c(S(=O)(=O)N2CCC(C(=O)NCc3ccccc3OC)CC2)c1`, the AC50 under setting [1] was 29.1 µM [rising, single point].

For the compound `O=C(Cn1cnc2cc([N+](=O)[O-])ccc2c1=O)NC1CCS(=O)(=O)C1` (stereo not given), the AC50 under setting [1] is 11.2 µM [falling, partial curve, poor fit]. Same read-out and setting: next, `Cc1cc(S(=O)(=O)N2CCN(c3ccccc3O)CC2)c(C)s1`: 29.1 µM [falling, partial curve, poor fit]. For `CCCS(=O)(=O)N1CCCC(C(=O)NCCc2ccc(OC)c(OC)c2)C1` (stereo not given), under setting [1], the AC50 is 29.1 µM [rising, single point]. On to `COc1ccc(C(=O)OCc2ccc(C)cc2)cc1S(=O)(=O)N1CCOCC1`, for which the AC50 under setting [2] is 16.4 µM [falling, partial curve, poor fit]. Consider `Cc1ccc(-n2ncc3c(N4CCCC4)ncnc32)c(C)c1`, for which the concentration at half-maximal activity (AC50) under setting [1] was 1 µM [falling, full curve, poor fit]. On to `COc1ccc([N+](=O)[O-])cc1NC(=O)CC(C)c1ccccc1` (stereo not given), for which, under setting [1], the AC50 was 6.31 µM [rising, full curve]. Regarding `Cc1cc(=O)n2[nH]c(C)c(-c3ccc(Cl)cc3)c2n1`, the AC50 under setting [1] is 6.51 µM [falling, single point] and the AC50 under setting [2] was 6.51 µM [rising, partial curve, poor fit]. Take `COc1cccc(/C=C2\SC(=S)N(CCC(=O)NNC(=O)c3ccccc3OC)C2=O)c1`: under setting [1], the AC50 was 12.6 µM [falling, partial curve, poor fit]. Still for that read-out and setting: next, `O=S(=O)(N1CCCCC1)N1CCN(CC(O)COc2ccc3cc(Br)ccc3c2)CC1` (stereo not given): 29.1 µM [falling, single point]. As for `COc1ccc(N(C(=O)c2ccccc2C)S(=O)(=O)c2cccs2)cc1`, the AC50 under setting [1] was 8.2 µM [rising, partial curve] and the AC50 under setting [2] is 7.31 µM [falling, partial curve]. Regarding `COc1ccccc1NC(C)C(=O)Nc1ccc(C(C)=O)cc1` (stereo not given), the AC50 under setting [1] was 23.1 µM [rising, single point]. The same measure, in the same setting: next, `Cc1ccc(C)c(S(=O)(=O)NCC(c2ccco2)N2CCc3ccccc3C2)c1` (stereo not given): 16.4 µM [falling, single point].
